# Measured values from patent US20100210713A1, “REGENERATION AND SURVIVAL OF CARDIAC PROGENITORS AND CARDIOMYOCYTES WITH A STRETCH ACTIVATED TRANSCRIPTION FACTOR” (THE GENERAL HOSPITAL CORPORATION, priority 2009, published 2010).
# Results are given in words; binding and its absence hold for the method and conditions named. Binding seen in cells or lysates may run through a third protein. Some results given as binding are weak or reduced against the parent protein; the word gives no strength. Tags and fused reporters may be left off the sequences shown.
# T1: Flag-tagged Creb312(N) (3xFlag-Creb312(N)) (human) (UniProt Q70SY1)
# T1 sequence: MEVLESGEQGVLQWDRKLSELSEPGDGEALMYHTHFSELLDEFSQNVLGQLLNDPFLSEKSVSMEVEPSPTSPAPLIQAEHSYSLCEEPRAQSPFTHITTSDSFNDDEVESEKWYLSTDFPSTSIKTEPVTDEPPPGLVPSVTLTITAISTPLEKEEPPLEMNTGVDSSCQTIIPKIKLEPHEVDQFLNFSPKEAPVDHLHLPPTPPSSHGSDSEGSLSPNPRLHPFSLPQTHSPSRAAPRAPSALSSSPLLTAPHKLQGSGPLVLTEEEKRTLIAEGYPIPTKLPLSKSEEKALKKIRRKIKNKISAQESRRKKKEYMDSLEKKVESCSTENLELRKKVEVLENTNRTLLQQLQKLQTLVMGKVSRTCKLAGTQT
# T2: endogenous nuclear form of Creb312 from nuclear extracts of mouse embryonic hearts (mouse) (UniProt Q8BH52)
# T2 sequence (looked up): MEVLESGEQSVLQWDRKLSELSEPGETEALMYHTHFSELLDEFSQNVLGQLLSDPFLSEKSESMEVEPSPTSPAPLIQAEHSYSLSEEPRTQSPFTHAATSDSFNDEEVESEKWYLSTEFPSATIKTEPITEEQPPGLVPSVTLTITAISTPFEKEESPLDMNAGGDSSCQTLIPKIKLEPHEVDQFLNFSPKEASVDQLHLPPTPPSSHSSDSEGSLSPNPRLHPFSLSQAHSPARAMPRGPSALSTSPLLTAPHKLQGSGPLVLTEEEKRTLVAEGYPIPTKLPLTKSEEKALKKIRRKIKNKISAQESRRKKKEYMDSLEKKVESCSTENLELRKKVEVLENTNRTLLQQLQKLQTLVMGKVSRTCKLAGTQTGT
# Experiments:
# [1] = target: T1, Flag-tagged Creb312(N) (3xFlag-Creb312(N)) (human); experiment: co-immunoprecipitation from COS7 cells: anti-Flag IP, anti-HA immunoblot (FIG. 2C)
# [2] = target: T1, Flag-tagged Creb312(N) (3xFlag-Creb312(N)) (human); experiment: co-immunoprecipitation from cotransfected COS7 cells: anti-Flag IP, anti-HA immunoblot
# [3] = target: T2, endogenous nuclear form of Creb312 from nuclear extracts of mouse embryonic hearts (mouse); experiment: co-immunoprecipitation on anti-Flag M2 gel from heart nuclear extract, immunoblot with anti-Creb312
# [4] = target: T2, endogenous nuclear form of Creb312 from nuclear extracts of mouse embryonic hearts (mouse); experiment: co-immunoprecipitation on anti-Flag M2 gel from heart nuclear extract, immunoblot with anti-Creb312 (FIG. 2D, 2E)
binding [1],binding [2],binding [3],binding [4],Binder
binds,binds,–,–,"HA-tagged Creb312(N) (protein, not shown: small tags and cut ends) MEVLESGEQGVLQWDRKLSELSEPGDGEALMYHTHFSELLDEFSQNVLGQLLNDPFLSEKSVSMEVEPSPTSPAPLIQAEHSYSLCEEPRAQSPFTHITTSDSFNDDEVESEKWYLSTDFPSTSIKTEPVTDEPPPGLVPSVTLTITAISTPLEKEEPPLEMNTGVDSSCQTIIPKIKLEPHEVDQFLNFSPKEAPVDHLHLPPTPPSSHGSDSEGSLSPNPRLHPFSLPQTHSPSRAAPRAPSALSSSPLLTAPHKLQGSGPLVLTEEEKRTLIAEGYPIPTKLPLSKSEEKALKKIRRKIKNKISAQESRRKKKEYMDSLEKKVESCSTENLELRKKVEVLENTNRTLLQQLQKLQTLVMGKVSRTCKLAGTQT"
–,–,binds,binds,"Flag-tagged Creb312(N) (3xFlag-Creb312(N)) (protein, not shown: small tags and cut ends) MEVLESGEQGVLQWDRKLSELSEPGDGEALMYHTHFSELLDEFSQNVLGQLLNDPFLSEKSVSMEVEPSPTSPAPLIQAEHSYSLCEEPRAQSPFTHITTSDSFNDDEVESEKWYLSTDFPSTSIKTEPVTDEPPPGLVPSVTLTITAISTPLEKEEPPLEMNTGVDSSCQTIIPKIKLEPHEVDQFLNFSPKEAPVDHLHLPPTPPSSHGSDSEGSLSPNPRLHPFSLPQTHSPSRAAPRAPSALSSSPLLTAPHKLQGSGPLVLTEEEKRTLIAEGYPIPTKLPLSKSEEKALKKIRRKIKNKISAQESRRKKKEYMDSLEKKVESCSTENLELRKKVEVLENTNRTLLQQLQKLQTLVMGKVSRTCKLAGTQT"
